This is an account of results in patent EP4670742A1, “ANTI-CD79B ANTIBODY DRUG CONJUGATES” (priority 2024, dated 2025).

By UniProt entry, the sequences of proteins in these tests, tags left out. Residues count along the entry.
UniProt P40259, residues 29-159: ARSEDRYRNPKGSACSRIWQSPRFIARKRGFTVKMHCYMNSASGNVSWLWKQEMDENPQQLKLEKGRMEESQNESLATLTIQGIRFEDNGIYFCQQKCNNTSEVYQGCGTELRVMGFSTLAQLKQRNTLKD

These are yes or no findings as the source states them, for the method shown. Some binding calls cover weakened binding; strength is not graded here.

This assay concerns the target human CD79b (human) (UniProt P40259). Nature of the assay: screening of antibody candidates; assay not named.

B1: Ab1 (antibody, human IgG1, kappa, V domains shown)
VH: EVQLVESGGGLVQPGGSLRLPCAASGFTFYNYWITWIRQAPGKGLEWVANINQAGSEKSYLDAVKGRFTISRDNAKNSVYLQMNSLRVEDTAVYYCAGGFRAFDIWGQGTMVTVSS
VL: DFVLTQSPLSLSVTPGEPASISCRSSQSLLHSSGESYLDWFLQRPGQSPQVLIYLGSHRASGAPDRFSGSGSGTDFTLKISRVEAEDVGVYYCMQALQTPLTFGGGTRVEIKR
notes: Unconjugated IgG1 kappa antibody expressed in CHO cells; also called anti-CD79b antibody Ab1; CD79b monoclonal antibody candidate
Turning to B1, the binding result was “binds”.
